Laboratory results: PubChem BioAssay AID1508597 (Cure First, 2020)

Test: 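Genes whose silencing sensitises or protects ovarian cancer cells against rucaparib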 (primary screen)
System: human ovarian carcinoma lines grown from tumours: OCI-P5x (papillary serous) and OCI-C5x (clear cell)
Reagent: siRNA pool against human genes, 1.25 pmol siRNA per well
Timing: 72 h or 96 h, depending on the cell culture
Treatment: rucaparib 20 µM (about IC30) or vehicle, present until read-out
Rucaparib or vehicle: Rucaparib
Cell line: OCI-C5x (clear cell)
Measurement: 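Luminescent ATP-based viability assay read 72 or 96 h after transfection, depending on culture, given as normalised percent viability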
Direction: viability, normalised: higher = more viable cells remaining
Hit rule: 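Active when normalised viability falls below 80 percent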
Meaning of the calls: active = viability under 80%; inactive = viability 80% or more
This is an unselected part of the about 2,100 reagents, under one of the conditions tested. 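Calls flag viability under 80% in either arm, not effects specific to rucaparib; the reference for percent is not stated.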 A reagent listed more than once was tested more than once; the source does not tell the runs apart. No sequences are given here. Not stated in the record: the 100% reference.

MPLKIP (M-phase specific PLK1 interacting protein), technical replicate 1 scored viability, normalised (%) = 58.4; active.
MPLKIP (M-phase specific PLK1 interacting protein), technical replicate 2 gave viability, normalised (%) = 43; active.
MPLKIP (M-phase specific PLK1 interacting protein), technical replicate 3 scored viability, normalised (%) = 42.8; active.
For HDGF (heparin binding growth factor), technical replicate 1 the deposit lists viability, normalised (%) = 80.7; inactive.
HDGF (heparin binding growth factor), technical replicate 2 gave viability, normalised (%) = 27.2; active.
For HDGF (heparin binding growth factor), technical replicate 3, the entry reads viability, normalised (%) = 43.9; active.
SUPT16H (SPT16 homolog, facilitates chromatin remodeling subunit), technical replicate 1 gave viability, normalised (%) = 74.4; active.
For SUPT16H (SPT16 homolog, facilitates chromatin remodeling subunit), technical replicate 1, the entry reads viability, normalised (%) = 53.2; active.
SUPT16H (SPT16 homolog, facilitates chromatin remodeling subunit), technical replicate 2 showed viability, normalised (%) = 74.1; active.
With SUPT16H (SPT16 homolog, facilitates chromatin remodeling subunit), technical replicate 2, the entry reads viability, normalised (%) = 47.6; active.
With SUPT16H (SPT16 homolog, facilitates chromatin remodeling subunit), technical replicate 3 the deposit lists viability, normalised (%) = 72.4; active.
SUPT16H (SPT16 homolog, facilitates chromatin remodeling subunit), technical replicate 3 scored viability, normalised (%) = 42.8; active.
JMJD1C (jumonji domain containing 1C), technical replicate 1 showed viability, normalised (%) = 48.2; active.
JMJD1C (jumonji domain containing 1C), technical replicate 2 scored viability, normalised (%) = 57.6; active.
JMJD1C (jumonji domain containing 1C), technical replicate 3 showed viability, normalised (%) = 45.9; active.

Records listed so far whose gene name begins with S or s:
SUPT16H (SPT16 homolog, facilitates chromatin remodeling subunit), technical replicate 1 — viability, normalised (%): 74.4; Call: active
SUPT16H (SPT16 homolog, facilitates chromatin remodeling subunit), technical replicate 1 — viability, normalised (%): 53.2; Call: active
SUPT16H (SPT16 homolog, facilitates chromatin remodeling subunit), technical replicate 2 — viability, normalised (%): 74.1; Call: active
SUPT16H (SPT16 homolog, facilitates chromatin remodeling subunit), technical replicate 2 — viability, normalised (%): 47.6; Call: active
SUPT16H (SPT16 homolog, facilitates chromatin remodeling subunit), technical replicate 3 — viability, normalised (%): 72.4; Call: active
SUPT16H (SPT16 homolog, facilitates chromatin remodeling subunit), technical replicate 3 — viability, normalised (%): 42.8; Call: active

The listing continues.
BMP2 (bone morphogenetic protein 2), technical replicate 1 gave viability, normalised (%) = 45.8; active.
BMP2 (bone morphogenetic protein 2), technical replicate 2 showed viability, normalised (%) = 40.3; active.
With BMP2 (bone morphogenetic protein 2), technical replicate 3, the entry reads viability, normalised (%) = 42.4; active.
With RAPGEF4 (Rap guanine nucleotide exchange factor 4), technical replicate 1 the deposit lists viability, normalised (%) = 65.1; active.
For RAPGEF4 (Rap guanine nucleotide exchange factor 4), technical replicate 2, the entry reads viability, normalised (%) = 53.1; active.
For RAPGEF4 (Rap guanine nucleotide exchange factor 4), technical replicate 3 the deposit lists viability, normalised (%) = 64; active.
EYA4 (EYA transcriptional coactivator and phosphatase 4), technical replicate 1 showed viability, normalised (%) = 41.1; active.
EYA4 (EYA transcriptional coactivator and phosphatase 4), technical replicate 2 gave viability, normalised (%) = 20.1; active.
For EYA4 (EYA transcriptional coactivator and phosphatase 4), technical replicate 3, the entry reads viability, normalised (%) = 37.2; active.
With PARP3 (poly(ADP-ribose) polymerase family member 3), technical replicate 1 the deposit lists viability, normalised (%) = 45.6; active.
PARP3 (poly(ADP-ribose) polymerase family member 3), technical replicate 1 showed viability, normalised (%) = 42.7; active.
With PARP3 (poly(ADP-ribose) polymerase family member 3), technical replicate 2, the values are viability, normalised (%) = 37.7; active.
PARP3 (poly(ADP-ribose) polymerase family member 3), technical replicate 2 scored viability, normalised (%) = 49.6; active.
PARP3 (poly(ADP-ribose) polymerase family member 3), technical replicate 3 gave viability, normalised (%) = 38.2; active.
For PARP3 (poly(ADP-ribose) polymerase family member 3), technical replicate 3, the values are viability, normalised (%) = 54.8; active.
PRKAG2 (protein kinase AMP-activated non-catalytic subunit gamma 2), technical replicate 1 showed viability, normalised (%) = 106; inactive.
PRKAG2 (protein kinase AMP-activated non-catalytic subunit gamma 2), technical replicate 1 showed viability, normalised (%) = 49.1; active.
PRKAG2 (protein kinase AMP-activated non-catalytic subunit gamma 2), technical replicate 2 gave viability, normalised (%) = 57.4; active.
PRKAG2 (protein kinase AMP-activated non-catalytic subunit gamma 2), technical replicate 2 scored viability, normalised (%) = 78; active.
PRKAG2 (protein kinase AMP-activated non-catalytic subunit gamma 2), technical replicate 3 scored viability, normalised (%) = 41.3; active.
For PRKAG2 (protein kinase AMP-activated non-catalytic subunit gamma 2), technical replicate 3, the values are viability, normalised (%) = 54.8; active.
With ARFGEF2 (ARF guanine nucleotide exchange factor 2), technical replicate 1, the entry reads viability, normalised (%) = 57.9; active.
With ARFGEF2 (ARF guanine nucleotide exchange factor 2), technical replicate 2 the deposit lists viability, normalised (%) = 51.9; active.
For ARFGEF2 (ARF guanine nucleotide exchange factor 2), technical replicate 3, the entry reads viability, normalised (%) = 56; active.
DRD2 (dopamine receptor D2), technical replicate 1 showed viability, normalised (%) = 40.4; active.
With DRD2 (dopamine receptor D2), technical replicate 2 the deposit lists viability, normalised (%) = 32.5; active.
With DRD2 (dopamine receptor D2), technical replicate 3, the values are viability, normalised (%) = 38.3; active.
